Measured values taken from PubChem BioAssay AID336 (DTP/NCI, 2004).
The list shows only some results of the screen, not a fair sample: it is rich in T/C values a quarter to a half above the control, in often repeated tests (any T/C) and in doses without a T/C. Further doses and runs are listed elsewhere. T/C: endpoint of the treated group in % of that of the vehicle group. Some doses have a count of surviving animals in place of a T/C: the source holds a T/C of zero for them, seemingly a mark for toxic or unscored doses. Some doses without a T/C left all or most animals alive at the check, yet need not have been tolerated: the source hardly ever lists a survival T/C far under the control, and the zero likely stands for such cases as well. Counts of survivors are from the toxicity check (mostly the fifth day) where no day follows; animals may have died later. Schedules are NCI's codes, read here as Q, the interval in days (D) or hours (H), X, the number of doses. Some doses were run more than once; the results are listed from low to high. For survival time, the PubChem record calls one and a half times the control and up active, and a quarter to a half above the control has no call in these data; cut-offs in other NCI protocols can differ. Some T/C values are followed by the survivors on the day toxicity was checked, most often the fifth; where none is given, no animal had died by that day.

Tested on: BDF1 mice, P388/VCR leukemia ip, median survival T/C
Experiment: NCI In Vivo Anticancer Drug Screen. Data for tumor model P388 Leukemia resistant to Vincristine; NSC 67574 (intraperitoneal) in B6D2F1 (BDF1) mice
Conditions: T/C endpoint: median survival time, higher T/C = longer survival
Protocol: The antitumor activity of compounds was measured in mice bearing transplantable tumors. Survival or tumor size were measured and the results are expressed as the measurement made in the treated group (T) divided by the measurement made in the vehicle treated control group (C). The tumor model used in this assay is P388 Leukemia resistant to Vincristine; NSC 67574 (intraperitoneal) in B6D2F1 (BDF1) mice

[1] = dose: 0.25 mg/kg/injection, schedule: Q01DX010 (ip), vehicle: saline
[2] = dose: 0.5 mg/kg/injection, schedule: Q01DX010 (ip), vehicle: saline
[3] = dose: 150.0 mg/kg/injection, schedule: Q01DX010 (ip), vehicle: saline

Nc1ncnc2[nH]ncc12 was tested, and the survivor count (dose: 1.5 mg/kg/injection, schedule: Q01DX010 (ip), vehicle: saline) was 6 of 6, the survivor count (dose: 3.0 mg/kg/injection, schedule: Q01DX010 (ip), vehicle: saline) was 6 of 6 and the survivor count (dose: 12.0 mg/kg/injection, schedule: Q01DX010 (ip), vehicle: saline) was 6 of 6.

CCCCn1cnc2c(=S)nc[nH]c21 was tested, and the survivor count (dose: 128.0 mg/kg/injection, schedule: Q01DX010 (ip), vehicle: saline) was 6 of 6.

For C[n+]1ccc(Nc2ccc(NC(=O)c3ccc(Nc4cc[n+](C)c5ccc(N)cc45)cc3)cc2)cc1, the T/C (dose: 5.4 mg/kg/injection, schedule: Q04DX003 (ip), vehicle: water) was 136 % of control, the T/C (dose: 9.0 mg/kg/injection, schedule: Q04DX003 (ip), vehicle: water) was 138 % of control and the T/C (dose: 15.0 mg/kg/injection, schedule: Q04DX003 (ip), vehicle: water) was 148 % of control [6 of 8 alive].

CC[C@]1(O)C[C@H]2CN(CCc3c([nH]c4ccccc34)[C@@](C(=O)OC)(c3cc4c(cc3OC)N(C=O)[C@H]3[C@@](O)(C(=O)OC)[C@H](OC(C)=O)[C@]5(CC)C=CCN6CC[C@]43[C@@H]65)C2)C1 was tested, and the survivor count (dose: 0.03 mg/kg/injection, schedule: Q01DX010 (ip), vehicle: saline) was 6 of 6, the survivor count (dose: 0.06 mg/kg/injection, schedule: Q01DX010 (ip), vehicle: saline) was 6 of 6 and the survivor count (dose: 0.12 mg/kg/injection, schedule: Q01DX010 (ip), vehicle: saline) was 6 of 6. For the same molecule, the T/C [1] was 126 % of control, the survivor count [1] was 6 of 6 and the survivor count [2] was 6 of 6. The survivor count (dose: 1670.0 micrograms/kg/injection, schedule: Q04DX003 (ip), vehicle: saline) was 7 of 8.

For CS(=O)(=O)OCCN(CCOS(C)(=O)=O)c1ccc(N=O)cc1, the T/C [2] was 135 % of control, the survivor count (dose: 1.0 mg/kg/injection, schedule: Q01DX010 (ip), vehicle: saline) was 6 of 6 and the survivor count (dose: 2.0 mg/kg/injection, schedule: Q01DX010 (ip), vehicle: saline) was 6 of 6. The survivor count (dose: 4.0 mg/kg/injection, schedule: Q01DX010 (ip), vehicle: saline) was 0 of 6 and 6 of 6.

For CS(=O)(=O)OCCCl, the survivor count (dose: 18.8 mg/kg/injection, schedule: Q01DX010 (ip), vehicle: saline) was 6 of 6, the T/C [3] was 139 % of control and the survivor count [3] was 3 of 6. For the same molecule, the survivor count (dose: 300.0 mg/kg/injection, schedule: Q01DX010 (ip), vehicle: saline) was 0 of 6.

With CC1CN1P(=S)(N1CC1C)N1CC1C (stereo not drawn) the T/C (dose: 20.0 mg/kg/injection, schedule: Q01DX010 (ip), vehicle: saline) was 138 % of control.

In the case of CC1CCOS(=O)O1 (stereo not drawn), the survivor count (dose: 80.0 mg/kg/injection, schedule: Q01DX010 (ip), vehicle: saline) is reported as 6 of 6.

CCN(CC)CCNc1ccc(C)c2sc3ccccc3c(=O)c12 was tested, and the T/C (dose: 25.0 mg/kg/injection, schedule: Q01DX010 (ip), vehicle: saline) was 127 and 136 % of control, the survivor count (dose: 100.0 mg/kg/injection, schedule: Q01DX010 (ip), vehicle: saline) was 6 of 6 and the survivor count (dose: 125.0 mg/kg/injection, schedule: Q01DX010 (ip), vehicle: saline) was 6 of 6. The survivor count (dose: 200.0 mg/kg/injection, schedule: Q01DX010 (ip), vehicle: saline) was 6 of 6.

COc1cc(-c2ccc(Nc3ccccc3C(=O)O)c(OC)c2)ccc1Nc1ccccc1C(=O)O was tested, and the T/C (dose: 45.0 mg/kg/injection, schedule: Q01DX010 (ip), vehicle: saline) was 125 % of control, the survivor count (dose: 67.0 mg/kg/injection, schedule: Q01DX010 (ip), vehicle: saline) was 0 of 6 and the survivor count [3] was 6 of 6.

In the case of O=C(Nc1ccc(C2=NCCN2)cc1)c1cc(Cl)cc(C(=O)Nc2ccc(C3=NCCN3)cc2)c1, the T/C (dose: 473.0 mg/kg/injection, schedule: Q01DX010 (ip), vehicle: saline) is reported as 131 % of control.

For COC1C(O)C(C)OC(OC2C(Oc3cccc4c(O)c5c(=O)oc6ccc(C)c7c(=O)oc(c34)c5c67)OC(C)C(O)C2O)C1O (stereo not drawn), the T/C (dose: 120.0 mg/kg/injection, schedule: Q04DX003 (ip), vehicle: acid diluted with saline) was 130 % of control.
